The target of the experiment is FLAG-His-tagged KBTBD11 (UniProt Q8BNW9). Briefly: affinity purification with mass spectrometry; tandem affinity purification (anti-FLAG M2 agarose, 3xFLAG peptide elution, then Ni-NTA agarose) of KBTBD11-FLAG-His from adenovirus-infected differentiated 3T3-L1 adipocytes (day 4); SDS-PAGE, silver staining, bands identified by MALDI-TOF MS.

Amino acid sequences for entries named in this document (tags omitted). Residues count along the entry.
UniProt Q8BNW9: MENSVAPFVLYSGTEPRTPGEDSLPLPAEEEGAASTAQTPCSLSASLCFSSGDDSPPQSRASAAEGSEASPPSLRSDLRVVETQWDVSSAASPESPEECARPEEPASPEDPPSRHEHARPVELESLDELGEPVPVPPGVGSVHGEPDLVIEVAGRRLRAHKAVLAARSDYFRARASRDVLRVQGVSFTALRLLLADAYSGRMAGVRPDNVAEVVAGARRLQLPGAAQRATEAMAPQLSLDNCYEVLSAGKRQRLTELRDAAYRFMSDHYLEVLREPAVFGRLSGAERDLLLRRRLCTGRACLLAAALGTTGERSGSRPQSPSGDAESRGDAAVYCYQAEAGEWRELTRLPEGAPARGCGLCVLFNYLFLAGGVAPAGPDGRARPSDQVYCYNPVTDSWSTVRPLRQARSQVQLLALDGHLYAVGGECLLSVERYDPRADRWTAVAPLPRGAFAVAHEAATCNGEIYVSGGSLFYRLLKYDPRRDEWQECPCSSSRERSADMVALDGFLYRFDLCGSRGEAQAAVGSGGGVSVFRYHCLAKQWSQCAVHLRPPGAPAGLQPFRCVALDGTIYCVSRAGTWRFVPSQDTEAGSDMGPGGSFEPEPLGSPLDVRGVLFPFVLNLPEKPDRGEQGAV
UniProt P63038, residues 27-573: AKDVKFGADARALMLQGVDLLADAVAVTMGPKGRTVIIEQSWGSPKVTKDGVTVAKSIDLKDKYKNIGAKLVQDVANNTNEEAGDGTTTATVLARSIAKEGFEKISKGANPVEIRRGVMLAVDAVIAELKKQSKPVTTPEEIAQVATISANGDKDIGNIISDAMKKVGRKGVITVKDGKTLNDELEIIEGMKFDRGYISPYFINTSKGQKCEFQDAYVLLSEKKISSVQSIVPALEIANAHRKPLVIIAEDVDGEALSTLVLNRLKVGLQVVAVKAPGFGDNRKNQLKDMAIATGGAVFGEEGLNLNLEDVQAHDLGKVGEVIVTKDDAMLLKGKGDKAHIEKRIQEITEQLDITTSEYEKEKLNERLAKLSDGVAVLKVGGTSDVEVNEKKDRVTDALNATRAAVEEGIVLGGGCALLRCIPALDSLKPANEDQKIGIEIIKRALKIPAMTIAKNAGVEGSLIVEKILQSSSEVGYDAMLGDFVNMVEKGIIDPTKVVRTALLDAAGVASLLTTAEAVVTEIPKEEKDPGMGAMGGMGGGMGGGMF

No constants are given. Whether binding was seen depends on the method and setting. Binding seen in cells or lysates may run through a third protein. These calls come from enrichment with a bait or labelling near it, and not all partners need be listed.

Regarding HSP60 (from UniProt P63038 27-573), the binding entry is “binds”.

These data come from PMC9700792.
